Assay results: PubChem BioAssay AID1487 (National Center for Advancing Translational Sciences (NCATS), 2009)
Several values for one entry are separate records, joined by “and”; a condition that tells them apart may be missing. Equal values may be shown once. The list shows a part of the results. Further columns of the screen follow, without active or inactive calls. Compounds called inactive in the main read-out are mostly missing here. Words in brackets tell the shape of the fitted curve; partial curves, single points and poor fits give uncertain potencies.

Test: qHTS Assay for Modulators of Lamin A Splicing
Conditions: HeLa LMNA splicing GFP/RFP minigene ratio, 48 h
Method in brief: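 S3 HeLa stable clones carrying a lamin A-EGFP splicing minigene plus DsRed2 were seeded at 600 cells/well in Opti-MEM with 2% FBS, pin-dosed and incubated 48 h at 37°C. Acumen cytometry (488 nm) gave the GFP/RFP total-intensity ratio.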

[1] = measured here: RFP viability control channel
[2] = measured here: GFP splicing reporter channel

SMILES	AC50 [1]	AC50 [2]
COc1cc(C(C)=O)ccc1Oc1ncnc2c1cnn2-c1ccc(C)c(C)c1	3.55 µM [rising, full curve, poor fit]	
COC(=O)c1cc(OC)c(OC)cc1NC(=S)N1CCN(C/C=C/c2ccccc2)CC1	35.5 µM [rising, single point]	14.1 µM [rising, single point]
COC(=O)C1=C(C)NC(C)=C(C(=O)OCCN(C)Cc2ccccc2)C1c1cccc([N+](=O)[O-])c1 (configuration not stated)	11.2 µM [rising, partial curve] and 2 µM [falling, partial curve] and 5.62 µM [falling, full curve, poor fit]	11.2 µM [rising, partial curve, poor fit] and 1.78 µM [falling, partial curve, poor fit] and 28.2 µM [falling, single point]
CN1/C(=C\C(=O)COC(=O)CN2C(=O)C3CC=CCC3C2=O)C(C)(C)c2ccccc21 (configuration not stated)	35.5 µM [rising, single point]	
Nc1ccc2c3c(cccc13)C(=O)N(c1ccccc1)C2=O		0.251 µM [rising, full curve, poor fit]
COC(=O)c1cc(C(=O)N2CCN(c3ccccc3OC)CC2)cc([N+](=O)[O-])c1	0.0282 µM [falling, full curve, poor fit]	
CN(CC(=O)Nc1cc(S(=O)(=O)N2CCOCC2)ccc1Cl)C1CCS(=O)(=O)C1 (configuration not stated)	10 µM [rising, partial curve, poor fit]	
CCC(C)c1ccc(NC(=O)C2CCCN(c3ncccn3)C2)cc1 (configuration not stated)	0.0355 µM [falling, single point]	1.26 µM [falling, single point]
O=C(NC12CC3CC(CC(C3)C1)C2)N1CCN(S(=O)(=O)c2ccc(Cl)cc2)CC1	7.94 µM [rising, partial curve]	
CCC(=O)C1=C(c2ccc(Cl)cc2)N(C(=O)CC)n2c(C)nnc2S1		17.8 µM [falling, partial curve]
Cc1ccc(N/N=C2\CCS(=O)(=O)c3sccc32)cc1	1.58 µM [rising, partial curve, poor fit]	12.6 µM [rising, partial curve, poor fit]
CCS(=O)(=O)c1ccc(O)c(Nc2cc(C)nc(SC)n2)c1		35.5 µM [falling, partial curve, poor fit]
O=C(CS(=O)(=O)Cc1ccccc1)N1CCN(c2cccc(C(F)(F)F)c2)CC1	35.5 µM [rising, single point]	
Cc1ccc(S(=O)(=O)C(CNC(=O)c2ccc(F)c(F)c2)c2ccco2)cc1 (configuration not stated)	8.91 µM [falling, partial curve, poor fit]	
O=C(Oc1ccc(OC(=O)c2ccco2)c(S(=O)(=O)c2ccc(Br)cc2)c1)c1ccco1	11.2 µM [falling, partial curve]	
Cn1c(=O)c(C(=O)CCl)c(N)n(Cc2ccccc2)c1=O	11.2 µM [rising, partial curve]	4.47 µM [rising, full curve, poor fit]
COC(=O)C[C@H]1c2ccccc2[C@H]2C(=C[C@@H](C)[C@H]3C(=O)N(O)C(=O)[C@H]32)N1C(=O)OC	3.16 µM [rising, partial curve, poor fit]	0.562 µM [rising, full curve, poor fit]
Cc1ccc(S(=O)(=O)c2nc(Nc3ccccc3)sc2Cl)cc1	11.2 µM [rising, single point]	25.1 µM [rising, single point]
O=C(/C=C/c1ccc(Cl)c([N+](=O)[O-])c1)Nc1cccc(NC(=O)c2ccco2)c1	35.5 µM [rising, single point]	
O=C(Nc1ccon1)c1ccc(OC2CCCC2)cc1	22.4 µM [rising, single point]	
Cc1cc(C)cc(OCC(=O)NC2CCCc3ccccc32)c1 (configuration not stated)	10 µM [rising, partial curve]	
CC(C)c1cnc2c(c1SCC(=O)Nc1ccc(OC(F)(F)F)cc1)c(=O)n(C)c(=O)n2C	20 µM [rising, single point]	6.31 µM [rising, single point]
O=C(CCCN1C(=O)c2cccnc2Oc2ccc(Cl)cc21)NCc1ccccc1F	0.355 µM [falling, full curve]	
O=C(O)c1cc(-c2cccs2)nn1-c1cccc(Cl)c1		0.0708 µM [rising, single point]
COc1ccc(NS(=O)(=O)c2cc(NC(=O)c3ccc(F)cc3)ccc2OC)cc1	11.2 µM [rising, single point]	
c1ccc2c(c1)CCN(c1nc3cc4c(cc3s1)OCO4)C2	14.1 µM [rising, single point]	

SMILES	AC50 [1]	AC50 [2]
COc1cc(C(=O)Nc2nc3ccc(C)cc3s2)ccc1OCc1c(C)noc1C	8.91 µM [falling, partial curve, poor fit]	
CC(C)NC(=O)c1ccc(-n2c(-c3ccccc3)cc3c2CCCC3)cc1		2.51 µM [falling, partial curve]
O=C(NC(Nc1nc2ccc([N+](=O)[O-])cc2s1)(C(F)(F)F)C(F)(F)F)c1ccccc1Cl	2 µM [rising, partial curve]	1.78 µM [rising, single point]
N#Cc1cccc(-c2nccc(NCc3ccccc3)n2)c1	11.2 µM [falling, single point]	17.8 µM [falling, partial curve, poor fit]
Cn1c(=O)c2c(SCc3cccc(C(F)(F)F)c3)nc(-c3ccco3)nc2n(C)c1=O	1.58 µM [falling, partial curve]	1.58 µM [falling, partial curve]
O=C(CC(NC(=O)c1ccccc1)c1ccccc1)Nc1ccc(F)c(F)c1 (configuration not stated)	10 µM [falling, partial curve, poor fit]	8.91 µM [falling, partial curve]
O=c1cc2c(nn1Cc1ccc(Cl)cc1)-c1ccccc1CC2	35.5 µM [rising, single point]	
CS(=O)(=O)N1CCN(c2ncccn2)CC1	0.158 µM [falling, full curve, poor fit]	
Cc1ccc(-c2ccnc(=S)[nH]2)cc1	35.5 µM [falling, single point]	28.2 µM [falling, single point]
O=C1C(NS(=O)(=O)c2cccs2)=C(N2CCN(c3cccc(Cl)c3)CC2)C(=O)c2ccccc21	28.2 µM [rising, single point]	
COc1ccc(OC)c2sc(N3CCN(C(=O)c4ccc5c(c4)CCCC5)CC3)nc12	35.5 µM [rising, single point]	
Cc1ccc(-c2c3c(=O)n(C)c(=O)n(C)c3cn2Cc2cccnc2)cc1	0.00447 µM [falling, full curve, poor fit]	
O=[N+]([O-])c1cc2c(c(CSc3nnc(Nc4ccccc4)s3)c1)OCOC2		6.31 µM [falling, single point]
c1ccc(N2CCN(Cc3cccn3-c3nnc(N4CCN(C5CCCCC5)CC4)s3)CC2)cc1	0.0447 µM [rising, full curve, poor fit]	0.0282 µM [rising, full curve, poor fit]
Cc1sc(NC(=O)c2ccco2)c(C(c2cccnc2)N2CCC(C)CC2)c1C (configuration not stated)	0.631 µM [rising, full curve]	1 µM [rising, full curve, poor fit]
COc1ccc(/C=C\C(=O)CC(O)(c2ccccc2)C(F)(F)F)cc1 (configuration not stated)	35.5 µM [falling, single point]	35.5 µM [falling, single point]
Cn1c(/C(C#N)=C(\O)c2ccc([N+](=O)[O-])cc2)nc2ccccc21	3.16 µM [rising, partial curve]	
COCCn1c(N)c(C(=O)OCc2ccccc2)c2nc3ccccc3nc21	4.47 µM [rising, single point]	1.41 µM [rising, partial curve, poor fit]
O=C(Nc1ccc(O)cc1)c1cc2ccccc2c(=O)s1		11.2 µM [falling, single point]
Cc1ccc(-n2ncc3c(=O)n(CC(=O)N4CCCCCC4)cnc32)cc1	12.6 µM [rising, partial curve, poor fit]	2.82 µM [rising, partial curve, poor fit]
O=C(Nc1cccc(Cl)c1)c1ccc(F)c(S(=O)(=O)NCc2ccc3c(c2)OCO3)c1	31.6 µM [rising, single point]	14.1 µM [rising, single point]
CCOC(=O)CC1=NN(c2ccccc2)C(=O)C1		0.00316 µM [falling, full curve, poor fit]
CN(C(=O)COc1ccc(Br)cc1Cl)C1CCCCC1	7.08 µM [falling, partial curve, poor fit]	
Cc1cc(Cl)c(S(=O)(=O)N2CCCCCC2)cc1OCC(=O)NC1CCCCC1	0.631 µM [rising, full curve, poor fit]	0.794 µM [rising, full curve]
CCOc1cc(CNc2cccc3ccccc23)cc(Br)c1OCC(=O)NC(C)(C)C	35.5 µM [rising, single point]	35.5 µM [rising, single point]

Of the compounds above, these contain bromine.
SMILES	AC50 [1]	AC50 [2]
O=C(Oc1ccc(OC(=O)c2ccco2)c(S(=O)(=O)c2ccc(Br)cc2)c1)c1ccco1	11.2 µM [falling, partial curve]	
CN(C(=O)COc1ccc(Br)cc1Cl)C1CCCCC1	7.08 µM [falling, partial curve, poor fit]	
CCOc1cc(CNc2cccc3ccccc23)cc(Br)c1OCC(=O)NC(C)(C)C	35.5 µM [rising, single point]	35.5 µM [rising, single point]
